From patent US11660286B2, “Methods and compositions comprising a nitrite-reductase promoter for treatment of medical disorders and preservation of blood products” (EpicentRx, Inc., priority 2011, dated 2023)

Tested on: hemorrhagic shock
Experiment: Resuscitation from hemorrhagic shock, hamster window chamber model: systemic parameters
Protocol: Experiments were performed in 55-65 g male Golden Syrian Hamsters (Charles River Laboratories, Boston, Mass.) fitted with a dorsal skinfold window chamber. Animal handling and care followed the NIH Guide for the Care and Use of Laboratory Animals. The hamster window chamber model is widely used for microvascular studies in the unanesthetized state. The complete surgical technique is described in detail elsewhere, such as in Colantuoni et al. in Am J Physiol 1984; 246:H508-17. […]
Conscious animal was placed in a restraining tube with a longitudinal slit from which the window chamber protruded, then fixed to the microscopic stage for transillumination with the intravital microscope (BX51WI, Olympus, New Hyde Park, N.Y.). […] Systemic (MAP, HR, Het, Hb, PaO2, PaCO2, pH, lactate, plasma nitrite, and metHb) and microvascular (artciorlar and venular diameters, blood flow, and FCD) parameters were analyzed, as previously described (e.g., in P. Nachuraju et al. in Resuscitation 2011; 82:607-613; Cabrales P. in Resuscitation 2009; 80:1431-6; Cabrales et al. in Shock 2007; 27:380-9; and Cabrales et al. in Am J Physiol 2004; 287:H363-73) before hemorrhage (baseline), after hemorrhage (shock), and up to 90 min after volume replacement (resuscitation). […]

Row | SMILES | Nitrite (plasma) (hamster, in vivo) | Nitrite (plasma) (Resuscitation (90 min), mean ± SD) [nM]
1 | O=NO [Nitrite, sodium nitrite] | 791 ± 100 nM and 457 ± 23 nM | 
2 | O=C(CBr)N1CC([N+](=O)[O-])([N+](=O)[O-])C1 [RRx-001] |  | 636 ± 54

Several values for one entry are separate records, joined by “and”; a condition that tells them apart may be missing. Equal values may be shown once.
